In PubChem BioAssay AID248 (DTP/NCI, 2004):
The list does not hold the whole screen: it gathers tests that were run many times, whatever their T/C, doses with no T/C, and many T/C values between a quarter and a half above the control. Other doses and runs of a compound stand elsewhere. T/C is the treated group as % of the vehicle group. Some entries give survivors of the animals treated and no T/C: the source holds a T/C of zero for them, seemingly a mark for toxic or unscored doses. Some doses without a T/C left all or most animals alive at the check, yet need not have been tolerated: survival well below the control is almost never listed, so the zero probably covers shortened survival too. Counts of survivors are from the toxicity check (mostly the fifth day) where no day follows; animals may have died later. Schedule codes are those of the source, taken here to give the interval after Q, in days (D) or hours (H), and the number of doses after X. Some schedules carry Z or #; the key to these is not given. For survival time, the PubChem record calls one and a half times the control and up active, and a quarter to a half above the control has no call in these data; cut-offs in other NCI protocols can differ.

Tested on: L1210 leukemia ip in BDF1 mice, survival T/C
Experiment: NCI In Vivo Anticancer Drug Screen. Data for tumor model L1210 Leukemia (intraperitoneal) in B6D2F1 (BDF1) mice
Conditions: higher T/C = longer survival
[1] = T/C endpoint: mean survival time, dose: 200.0 mg/kg/injection, schedule: Q01DX001 (ip), vehicle: saline
[2] = T/C endpoint: mean survival time, dose: 200.0 mg/kg/injection, schedule: Q04DX003 (ip), vehicle: saline
[3] = T/C endpoint: mean survival time, dose: 400.0 mg/kg/injection, schedule: Q01DX001 (ip), vehicle: saline
[4] = T/C endpoint: mean survival time, dose: 400.0 mg/kg/injection, schedule: Q04DX003 (ip), vehicle: saline
[5] = T/C endpoint: mean survival time, dose: 400.0 mg/kg/injection, schedule: Q01DX009 (ip), vehicle: saline with Tween-80

CN(C)CCC(=O)c1ccccc1
survivor count (T/C endpoint: mean survival time, dose: 100.0 mg/kg/injection, schedule: Q04DX003 (ip), vehicle: saline): 3 of 6
survivor count [1]: 0 of 4
survivor count [2]: 0 of 6
survivor count [3]: 0 of 4
survivor count [4]: 0 of 6

O=C(CCN1CCCCCCC1)c1cccc([N+](=O)[O-])c1
survivor count (T/C endpoint: mean survival time, dose: 200.0 mg/kg/injection, schedule: Q01DX009 (ip), vehicle: saline): 0 of 6
survivor count [2]: 1 of 6
survivor count [4]: 0 of 6

O=C1c2ccccc2C(=O)N1CN1CCC(CCCC2CCN(CN3C(=O)c4ccccc4C3=O)CC2)CC1
survivor count (T/C endpoint: mean survival time, dose: 200.0 mg/kg/injection, schedule: Q04DX003 (ip), vehicle: saline with Tween-80): 3 of 3
survivor count (T/C endpoint: mean survival time, dose: 400.0 mg/kg/injection, schedule: Q04DX003 (ip), vehicle: saline with Tween-80): 3 of 3

CC(=O)NC(CCc1ccc(Cl)c(Cl)c1)c1cccc(O)c(=O)c1 (stereo not drawn)
survivor count (T/C endpoint: median survival time, dose: 200.0 mg/kg/injection, schedule: Q01DX009 (ip), vehicle: Klucel (hydroxypropylcellulose) (HPC)): 1 of 6
survivor count (T/C endpoint: median survival time, dose: 400.0 mg/kg/injection, schedule: Q01DX009 (ip), vehicle: Klucel (hydroxypropylcellulose) (HPC)): 0 of 6

CCc1cc(S(=O)(=O)O)c(CC)c(CC)c1CC
survivor count (T/C endpoint: mean survival time, dose: 200.0 mg/kg/injection, schedule: Q01DX009 (ip), vehicle: saline with Tween-80): 1 of 6
survivor count [5]: 0 of 6

COc1cccc(NC(=S)Nc2cccc(OC)c2)c1
survivor count (T/C endpoint: mean survival time, dose: 100.0 mg/kg/injection, schedule: Q01DX009 (ip), vehicle: saline with Tween-80): 2 of 3
survivor count (T/C endpoint: mean survival time, dose: 100.0 mg/kg/injection, schedule: Q04DX002 (ip), vehicle: saline with Tween-80): 3 of 3
survivor count [5]: 3 of 3

CCCCCCCCCCCCCCCCCCCCCCOC(=O)CCC(=O)OCCCCCCCCCCCCCCCCCCCCCC
survivor count (T/C endpoint: mean survival time, dose: 400.0 mg/kg/injection, schedule: Q01DX009 (ip), vehicle: gum acacia): 6 of 6

CC[N+](CC)(CC)CCCCCCCC[N+](CC)(CC)CC
survivor count (T/C endpoint: mean survival time, dose: 3.12 mg/kg/injection, schedule: Q01DX009 (ip), vehicle: water): 3 of 6
survivor count (T/C endpoint: mean survival time, dose: 3.12 mg/kg/injection, schedule: Q04DX003 (ip), vehicle: saline): 1 of 6
survivor count (T/C endpoint: mean survival time, dose: 6.25 mg/kg/injection, schedule: Q04DX003 (ip), vehicle: saline): 0 of 6
survivor count (T/C endpoint: mean survival time, dose: 100.0 mg/kg/injection, schedule: Q04DX003 (ip), vehicle: water): 0 of 6
survivor count (T/C endpoint: mean survival time, dose: 200.0 mg/kg/injection, schedule: Q04DX003 (ip), vehicle: water): 0 of 6
survivor count (T/C endpoint: mean survival time, dose: 400.0 mg/kg/injection, schedule: Q04DX003 (ip), vehicle: water): 0 of 6

C/C(=N\[N+](C)(C)C)c1ccc2ccccc2c1
survivor count (T/C endpoint: mean survival time, dose: 200.0 mg/kg/injection, schedule: Q04DX003 (ip), vehicle: Klucel (hydroxypropylcellulose) (HPC)): 0 of 6
survivor count (T/C endpoint: mean survival time, dose: 400.0 mg/kg/injection, schedule: Q04DX003 (ip), vehicle: Klucel (hydroxypropylcellulose) (HPC)): 0 of 6

NC(N)=N/N=C(/C=C/c1ccccc1)c1ccc(Cl)cc1
survivor count (T/C endpoint: mean survival time, dose: 480.0 mg/kg/injection, schedule: Q01DX Z (ip), vehicle: carboxymethylcellulose (CMC)): 6 of 6

CCNC(=NC)c1ccc(NC(=O)c2ccc(C(=O)Nc3ccc(C(=NC)NCC)cc3)cc2)cc1
T/C (T/C endpoint: mean survival time, dose: 4.4 mg/kg/injection, schedule: Q01DX Z (ip), vehicle: carboxymethylcellulose (CMC)): 136 % of control

NC(N)=NN=C1c2ccccc2-c2ccccc21
survivor count (T/C endpoint: mean survival time, dose: 8.0 mg/kg/injection, schedule: Q01DX Z (oral), vehicle: methylcellulose (MC)): 4 of 6
survivor count (T/C endpoint: mean survival time, dose: 15.0 mg/kg/injection, schedule: Q01DX Z (ip), vehicle: methylcellulose (MC)): 3 of 6
survivor count (T/C endpoint: mean survival time, dose: 30.0 mg/kg/injection, schedule: Q01DX Z (ip), vehicle: methylcellulose (MC)): 1 of 6
survivor count (T/C endpoint: mean survival time, dose: 32.0 mg/kg/injection, schedule: Q01DX Z (oral), vehicle: methylcellulose (MC)): 4 of 6
survivor count (T/C endpoint: mean survival time, dose: 60.0 mg/kg/injection, schedule: Q01DX Z (ip), vehicle: methylcellulose (MC)): 0 of 6
survivor count (T/C endpoint: mean survival time, dose: 120.0 mg/kg/injection, schedule: Q01DX Z (ip), vehicle: methylcellulose (MC)): 0 of 6

CCCSc1nccc2n[nH]nc12
survivor count (T/C endpoint: mean survival time, dose: 400.0 mg/kg/injection, schedule: Q01DX001 (ip), vehicle: saline with Tween-80): 1 of 6

CCOC(=O)c1cc2c(-c3ccccc3)c(-c3ccccc3)c(-c3ccccc3)c(-c3ccccc3)n2n1
survivor count [1]: 3 of 3

COc1ccc(/C=C2\C(=O)OC(=O)\C2=C\c2ccc(OC)c(OC)c2)cc1OC
survivor count (T/C endpoint: mean survival time, dose: 400.0 mg/kg/injection, schedule: Q01DX009 (ip), vehicle: Klucel (hydroxypropylcellulose) (HPC)): 2 of 6

COC(=O)/C=C(\C)Nc1ccc(Cc2ccc(N/C(C)=C/C(=O)OC)cc2)cc1
survivor count [3]: 6 of 6
